The values that follow come from patent US20230391879A1 (INTERVET, published 2023).

The assay has as its target T1, Canine IL-31RA ECD-10His (canine).
T1 construct: made in HEK-293 or CHO cells and coated on the ELISA plates; also called canine IL-31 receptor alpha extracellular domain HIS-tagged protein; cIL-31RA
T1 chain: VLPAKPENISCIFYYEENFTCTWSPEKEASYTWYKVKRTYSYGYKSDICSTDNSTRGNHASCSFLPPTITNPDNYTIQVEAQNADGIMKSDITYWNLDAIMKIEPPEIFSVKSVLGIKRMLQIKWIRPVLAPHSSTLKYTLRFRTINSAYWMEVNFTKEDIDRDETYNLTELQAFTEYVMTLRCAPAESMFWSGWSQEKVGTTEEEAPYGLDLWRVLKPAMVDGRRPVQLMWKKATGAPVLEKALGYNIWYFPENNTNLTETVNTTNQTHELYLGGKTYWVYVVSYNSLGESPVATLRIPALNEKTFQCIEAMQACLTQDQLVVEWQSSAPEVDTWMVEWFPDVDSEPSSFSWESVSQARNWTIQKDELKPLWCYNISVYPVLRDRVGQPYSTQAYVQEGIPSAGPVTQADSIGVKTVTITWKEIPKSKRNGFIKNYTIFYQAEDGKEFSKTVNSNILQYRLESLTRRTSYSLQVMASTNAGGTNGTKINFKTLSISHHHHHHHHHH
Kind of assay: ELISA, IL-31RA coated. A general note: In an ELISA, binding on a coated surface is turned into a signal by an enzyme label.

No constants are given. Whether binding was seen depends on the method and setting. Some binding calls cover weakened binding; strength is not graded here.

B1: 38A6 (antibody, V domains shown)
VH: EVQLVESGGGLVQPGRSLKLSCVASGFTFNNYWMTWIRQAPGKGLEWVASITNTGGTTYYPDSVKGRFTISRDNAKSTLYLQMNSLRSEDTATYYCTRGPTTVVGGWFAYWGQGTLVTVSS
VL: DIVMTQSPTSMSISVGDRVTMNCKASQNVGSNVDWYQQKTGQSPKVLIYRASSRSTGVPDRFTGSGSGTDFTFTISNMQAEDLAVYYCMQSNSYPPTFGGGTKLELK
For the molecule B1, the binding result is recorded as “binds”.
